Results reported in patent US20230054718A1.
Substitutions are numbered along the chain they refer to. These are yes or no findings as the source states them, for the method shown. Some entries that bind do so weakly or less than the wild type.

By UniProt entry, the sequences of proteins in these tests, tags left out. Where a name states a change or a piece, a line headed by the entry shows the natural chain unless it says otherwise. Chains listed by the source or under a name are the forms on record and can include a tag or linker.
recombinant mouse Galectin-9 (O08573, form named): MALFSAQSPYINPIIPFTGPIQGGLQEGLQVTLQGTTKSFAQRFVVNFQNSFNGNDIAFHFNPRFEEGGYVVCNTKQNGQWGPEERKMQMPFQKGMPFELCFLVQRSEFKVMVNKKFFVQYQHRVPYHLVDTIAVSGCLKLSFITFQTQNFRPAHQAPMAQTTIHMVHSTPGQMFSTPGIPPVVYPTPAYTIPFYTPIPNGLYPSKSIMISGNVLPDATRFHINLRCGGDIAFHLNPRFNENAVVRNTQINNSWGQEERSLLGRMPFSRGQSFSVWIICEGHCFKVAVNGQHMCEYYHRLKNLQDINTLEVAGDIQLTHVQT
recombinant human Galectin-9 (O00182, form named): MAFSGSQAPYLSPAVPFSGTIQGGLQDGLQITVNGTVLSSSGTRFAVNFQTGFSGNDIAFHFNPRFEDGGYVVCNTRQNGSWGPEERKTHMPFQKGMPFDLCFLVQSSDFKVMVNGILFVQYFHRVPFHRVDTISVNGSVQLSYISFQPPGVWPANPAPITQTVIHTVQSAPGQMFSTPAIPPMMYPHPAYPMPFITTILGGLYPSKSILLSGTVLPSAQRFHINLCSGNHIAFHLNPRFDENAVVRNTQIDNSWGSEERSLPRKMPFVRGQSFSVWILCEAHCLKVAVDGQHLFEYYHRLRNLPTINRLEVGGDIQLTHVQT

B1: HFB9-1hz4-hG1AA (antibody, V domains shown)
VH: QVQLVQSGAEVKKPGSSVKVSCKASGYTFTDYTIHWVRQAPGQGLEWMGWFYPGSHSIKYAQKFQGRVTITADKSTSTAYMELSSLRSEDTAVYYCARHGGYDGFDYWGQGTLVTVSS
VL: DIVMTQSPDSLAVSLGERATINCKSSQSLFYSTNQKNYLAWYQQKPGQPPKLLIYWASTRESGVPDRFSGSGSGTDFTLTISSLQAEDVAVYYCQQYYYFPYTFGQGTKLEIK
B2: HFB9-1hz1-hG1AA (antibody, human IgG1, V domains shown)
VH: B1 VH with S16A, I70M, K74T, T76I, S85R, E89D, Y95F, A97T
VL: B1 VL
B3: HFB9-1hz2-hG1AA (antibody, human IgG1, V domains shown)
VH: B1 VH with Y95F, A97T
VL: B1 VL
B4: HFB9-1hz3-hG1AA (antibody, human IgG1, V domains shown)
VH: B1 VH with A97T
VL: B1 VL

Experiments:
[1] = target: recombinant mouse Galectin-9 (mouse) (UniProt O08573); assay: binding to recombinant mouse Gal-9, OD read-out over antibody concentration (nM)
[2] = target: recombinant human Galectin-9 (human) (UniProt O00182); assay: EC50 titration, method not named (FIG. 3)
[3] = target: recombinant mouse Galectin-9 (mouse) (UniProt O08573); assay: EC50 titration, method not named (FIG. 4)

Row | Binder | binding [1] | binding [2] | binding [3]
1 | B1 | binds |  | 
2 | B2 |  | binds | binds
3 | B3 |  | binds | binds
4 | B4 |  | binds | binds
